In US8877802B2 (priority 2005, dated 2014):
At least one compound was matched to its structure with a doubt left.

The chains behind the UniProt entries cited, without tags or fusion partners.
UniProt Q923Y9, whole entry: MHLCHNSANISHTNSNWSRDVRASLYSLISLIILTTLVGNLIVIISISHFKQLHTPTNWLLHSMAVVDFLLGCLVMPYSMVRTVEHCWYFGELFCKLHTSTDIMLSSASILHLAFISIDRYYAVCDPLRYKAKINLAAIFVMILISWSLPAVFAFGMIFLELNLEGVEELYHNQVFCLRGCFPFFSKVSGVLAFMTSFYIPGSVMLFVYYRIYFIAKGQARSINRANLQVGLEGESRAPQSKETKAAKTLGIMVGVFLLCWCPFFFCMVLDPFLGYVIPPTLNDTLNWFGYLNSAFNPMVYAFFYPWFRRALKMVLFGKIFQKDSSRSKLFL

What was measured:
[1] = system: DA-depleted DAT-KO (DDD) mice; assay: Catalepsy test (horizontal bar) in DDD mice; conditions: cumulative treatment with 10 and 30 mg/kg IP
[2] = system: DA-depleted DAT-KO (DDD) mice; assay: Locomotor activity (forward locomotion, distance traveled) in DDD mice; conditions: drug 1 h after αMT 250 mg/kg IP
[3] = molecular target: TA1 receptor (Rattus norvegicus, UniProt Q923Y9); conditions: reported in [42]; cited from earlier work
[4] = system: DA-depleted DAT-KO (DDD) mice; conditions: mouse, in vivo

Fc1ccc(C(OCCN2CCN(CCCc3ccccc3)CC2)c2ccc(F)cc2)cc1 [GBR12909]
reversing catalepsy [1]: not effective | forward locomotion (distance traveled) [2]: not effective | activity at TA1 receptor [3]: completely lacks the ability to interact with TA1 receptor | manifestations of akinesia and rigidity [4]: no such effects were observed
